Results reported in paper PMC12069692, “Pharmacological inhibition of PLK1/PRC1 triggers mitotic catastrophe and sensitizes lung cancers to chemotherapy” (Cell Death & Disease, 2025).
Results are given in words; binding and its absence hold for the method and conditions named. Binding seen in cells or lysates may run through a third protein. Some entries that bind do so weakly or less than the wild type.

By UniProt entry, the sequences of proteins in these tests, tags left out.
UniProt O43663: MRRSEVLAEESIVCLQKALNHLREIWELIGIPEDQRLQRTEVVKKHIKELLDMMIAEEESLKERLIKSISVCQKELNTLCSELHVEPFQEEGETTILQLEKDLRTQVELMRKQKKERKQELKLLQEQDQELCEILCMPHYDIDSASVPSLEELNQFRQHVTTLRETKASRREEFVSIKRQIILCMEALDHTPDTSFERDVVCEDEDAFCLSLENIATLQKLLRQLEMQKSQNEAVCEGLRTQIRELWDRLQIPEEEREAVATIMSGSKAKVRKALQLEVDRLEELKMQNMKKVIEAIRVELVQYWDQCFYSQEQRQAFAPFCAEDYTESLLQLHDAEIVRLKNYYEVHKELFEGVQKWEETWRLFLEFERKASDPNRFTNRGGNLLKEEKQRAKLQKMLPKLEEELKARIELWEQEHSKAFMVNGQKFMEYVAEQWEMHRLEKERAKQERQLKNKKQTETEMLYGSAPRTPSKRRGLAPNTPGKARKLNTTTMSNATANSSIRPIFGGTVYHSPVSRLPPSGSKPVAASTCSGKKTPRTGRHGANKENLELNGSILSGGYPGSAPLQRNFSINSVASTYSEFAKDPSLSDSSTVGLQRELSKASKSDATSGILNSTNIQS
UniProt P53350: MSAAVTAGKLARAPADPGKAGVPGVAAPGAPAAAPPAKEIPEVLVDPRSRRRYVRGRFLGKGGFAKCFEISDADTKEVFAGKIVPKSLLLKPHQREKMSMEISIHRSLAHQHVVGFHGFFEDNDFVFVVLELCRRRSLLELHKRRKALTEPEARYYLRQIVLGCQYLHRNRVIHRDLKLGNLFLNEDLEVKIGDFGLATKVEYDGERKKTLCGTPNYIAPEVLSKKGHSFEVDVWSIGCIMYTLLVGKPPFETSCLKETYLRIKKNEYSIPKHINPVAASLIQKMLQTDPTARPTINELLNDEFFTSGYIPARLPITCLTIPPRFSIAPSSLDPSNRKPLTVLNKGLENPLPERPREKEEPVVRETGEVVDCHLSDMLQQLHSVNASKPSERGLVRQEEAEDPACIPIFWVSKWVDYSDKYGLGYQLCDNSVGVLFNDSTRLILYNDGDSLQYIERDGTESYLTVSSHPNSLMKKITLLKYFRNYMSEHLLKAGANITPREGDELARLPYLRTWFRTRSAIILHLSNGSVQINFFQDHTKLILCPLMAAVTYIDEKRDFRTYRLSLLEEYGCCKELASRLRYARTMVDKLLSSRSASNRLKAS

Biological target: protein regulating of cytokinesis (PRC1) (human (endogenous in A549/DDP)) (UniProt O43663)
Test: co-IP; lysates of A549/DDP cells, untreated or treated with B4 (6 uM, 48 h), immunoprecipitated with anti-PRC1-coupled agarose beads for 2 h; PLK1 detected in the eluate

- binding: binds
Substance: Polo-like kinase 1 (PLK1) (from UniProt P53350 1-603)
